Measurements from PMC12077105, “PASTA kinase signaling regulates peptidoglycan synthesis in Enterococcus faecalis by direct inhibition of UDP-N-acetylglucosamine 1-carboxyvinyl transferase activity” (mBio, 2025).
No constants are given. Whether binding was seen depends on the method and setting. Some results given as binding are weak or reduced against the parent protein; the word gives no strength. For part of these data: Where a sequence is shown, tags or fusion partners need not be part of it.

How the values were obtained:
[1] = target: IreB D50A fused to the T18 or T25 fragment of Bordetella pertussis adenylate cyclase (E. faecalis) (UniProt Q836B3); assay: two-hybrid; bacterial two-hybrid: fusions to the T18 and T25 domains of B. pertussis adenylate cyclase, co-transformed in E. coli DHM1, spotted on LB agar with X-gal and 0.1 mM IPTG, 5 days at room temperature
[2] = target: T1, recombinant MurAB-His6 (E. faecalis) (UniProt Q836E5); assay: thermal shift assay; 2.5 uM MurAB with rising molar ratios of test protein, 10x SYPRO Orange, 50 mM Tris, 25 mM NaCl, pH 7.5; change of the MurAB melt temperature; both purified
T1 sequence: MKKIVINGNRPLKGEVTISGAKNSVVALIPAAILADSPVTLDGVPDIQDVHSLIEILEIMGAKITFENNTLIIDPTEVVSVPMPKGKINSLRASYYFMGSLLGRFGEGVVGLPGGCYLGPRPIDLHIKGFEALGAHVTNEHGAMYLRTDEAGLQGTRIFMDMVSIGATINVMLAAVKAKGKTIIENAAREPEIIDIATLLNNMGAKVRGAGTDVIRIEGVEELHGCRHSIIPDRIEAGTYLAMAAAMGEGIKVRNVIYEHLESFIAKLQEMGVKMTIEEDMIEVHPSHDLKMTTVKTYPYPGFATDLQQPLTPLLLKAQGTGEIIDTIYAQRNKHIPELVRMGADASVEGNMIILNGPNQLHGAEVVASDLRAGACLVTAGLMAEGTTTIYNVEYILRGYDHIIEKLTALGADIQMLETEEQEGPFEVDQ

[3] = target: T2, MurAB fused to the T18 or T25 fragment of Bordetella pertussis adenylate cyclase (E. faecalis) (UniProt Q836E5); assay: two-hybrid; bacterial two-hybrid: fusions to the T18 and T25 domains of B. pertussis adenylate cyclase, co-transformed in E. coli DHM1, spotted on LB agar with X-gal and 0.1 mM IPTG, 5 days at room temperature
T2 sequence: T1 sequence

Molecule: IreB D50A fused to the T18 or T25 fragment of Bordetella pertussis adenylate cyclase (from UniProt Q836B3 1-89)
- binding [1]: binds

Molecule: lysozyme (from UniProt P00698 19-147) (enzyme)
- binding [2]: no binding

B1: purified recombinant wild-type IreB (expressed as His6-SUMO-IreB) (natural protein)
chain: MGFTDETVRFDFDDNRKKAISETLETVYRALEEKGYNPINQIVGYLLSGDPAYIPRYQDARNLIRRHERDEIMEELTKYYLANHGIDIK
notes: IreB of Enterococcus faecalis; wild-type allele amplified from OG1RF genomic DNA; IreB for the enzymatic assays was purified in MOPS buffer; also called unphosphorylated IreB; source: E. coli BL21(DE3), purified (Ni-charged resin)
- binding [3]: binds
